Measurements published in paper PMC3411835.
Results are given in words; binding and its absence hold for the method and conditions named. In cells and extracts the contact can be indirect. Here binding means that the protein was enriched with, or labelled near, the bait; the list need not be complete.

By UniProt entry, the sequences of proteins in these tests, tags left out. Residues count along the entry.
UniProt P15812, residues 32-388: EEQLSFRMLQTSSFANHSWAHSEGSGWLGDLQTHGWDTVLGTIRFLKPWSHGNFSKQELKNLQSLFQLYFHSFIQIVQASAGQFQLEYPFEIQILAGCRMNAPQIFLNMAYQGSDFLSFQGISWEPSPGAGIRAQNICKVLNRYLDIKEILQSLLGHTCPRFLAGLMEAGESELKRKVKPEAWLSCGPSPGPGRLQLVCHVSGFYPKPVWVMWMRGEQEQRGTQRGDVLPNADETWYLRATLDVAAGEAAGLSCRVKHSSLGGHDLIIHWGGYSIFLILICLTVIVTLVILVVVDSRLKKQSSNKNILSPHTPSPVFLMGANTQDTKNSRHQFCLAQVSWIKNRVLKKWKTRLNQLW
UniProt P22061: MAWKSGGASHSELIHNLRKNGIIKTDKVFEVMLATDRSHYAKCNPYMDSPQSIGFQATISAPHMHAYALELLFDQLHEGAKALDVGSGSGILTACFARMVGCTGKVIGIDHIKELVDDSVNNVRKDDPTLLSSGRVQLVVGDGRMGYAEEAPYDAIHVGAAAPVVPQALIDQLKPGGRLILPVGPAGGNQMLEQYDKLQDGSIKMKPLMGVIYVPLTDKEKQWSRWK

B1: lysosomal-associated transmembrane protein 5 (LAPTM5), endogenous in M10 cells (protein, UniProt Q13571 1-262)
chain: MDPRLSTVRQTCCCFNVRIATTALAIYHVIMSVLLFIEHSVEVAHGKASCKLSQMGYLRIADLISSFLLITMLFIISLSLLIGVVKNREKYLLPFLSLQIMDYLLCLLTLLGSYIELPAYLKLASRSRASSSKFPLMTLQLLDFCLSILTLCSSYMEVPTYLNFKSMNHMNYLPSQEDMPHNQFIKMMIIFSIAFITVLIFKVYMFKCVWRCYRLIKCMNSVEEKRNSKMLQKVVLPSYEEALSLPSKTPEGGPAPPPYSEV

Molecular target: CD1e (transgenic, expressed in M10 melanoma cells) (human) (UniProt P15812)
Experiment: affinity purification with mass spectrometry; M10 cells expressing CD1e or untransfected, 5 h bafilomycin; 1% Triton X-100, 150 mM NaCl, 20 mM Tris pH 8 lysate; CD1e immunoadsorbed on immobilised cross-linked mAb 20.6; SDS-PAGE, gel sections around 27 kD, trypsin, LC/MS/MS

Molecule	binding
L-isoaspartate O-methyltransferase (encoded by PCMT1) (from UniProt P22061 1-227)	binds
B1	binds
